# Measured values taken from article PMC8505262.
# No constants are given. Whether binding was seen depends on the method and setting. In cells and extracts the contact can be indirect. Some entries that bind do so weakly or less than the wild type. Tags and fused reporters may be left off the sequences shown.
# T1: HA-tagged Neurensin-2 (UniProt Q5HZK2)
# T1 sequence: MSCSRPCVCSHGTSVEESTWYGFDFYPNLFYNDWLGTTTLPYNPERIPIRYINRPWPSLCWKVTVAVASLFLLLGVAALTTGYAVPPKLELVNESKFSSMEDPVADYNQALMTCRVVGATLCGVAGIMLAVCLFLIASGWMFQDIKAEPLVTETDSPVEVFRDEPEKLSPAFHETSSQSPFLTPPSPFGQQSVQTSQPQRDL
# Biological target: T1, HA-tagged Neurensin-2
# Experiment: co-IP; co-IP of HA-Nrsn2 or HA control from transfected N2a cells; immunoblots of the partners beside 1% inputs
row,binding,Molecule
1,binds,actin related protein 2/3 complex subunit 1b (from UniProt Q9WV32 1-372)
2,binds,"vacuolar protein sorting-associated protein 37B (protein, UniProt Q8R0J7 1-285) MAGAVSEARFAGLSLMQLHELLEDDAQLGDMVRGMEEAQTVQLNKEMTLASNRSLAEGNLLYQPQLDAQKARLTQKYQELQVLFEAYQIKKTKLDKQSNNASLETLLALLQAEGAKIEEDTENMAEKFLDGELPLDSFIDVYQSKRKLAHMRRVKVEKLQELVLKGQRHPQAGAPPPPRVPEPSPATALPYPSLEATGLPSVVPRRIPPPPPPVPAGHVATPFAAAMGSGQVSAYPGLQCPPLPPRVGLPSQQGFSAQLVSPYPPALPQRPPPRMAPHQPGFILQ"
3,binds,"Homer3 (protein, UniProt Q99JP6 1-356) MSTAREQPIFSTRAHVFQIDPTTKRNWIPAGKHALTVSYFYDATRNVYRIISIGGAKAIINSTVTPNMTFTKTSQKFGQWADSRANTVYGLGFASEQQLTQFAEKFQEVKEAARLAREKSQDGGEFTSTGLALASHQVPPSPLVSTNGPGEEKLFRSQSADTPGPTERERLKKMLSEGSVGEVQWEAEFFALQDSNQRLAGALREANAAATQWRQQLEVQRAEAELLRQRVAELEAQVAVEPVRAGEKEATSQSVEQLEARVQTKDQTLKNQSTGTREAPDTAEREETQQQVQDLETRNAELEQQLRSMECNLEEARAERERARAEVGRAAQLLDVRLFELSELREGLARLAEAAP"
